Results are given in words; binding and its absence hold for the method and conditions named. Binding seen in cells or lysates may run through a third protein. These calls come from enrichment with a bait or labelling near it, and not all partners need be listed.
Legend:
[1] = target: McaB-GFP (Magnetospirillum magneticum AMB-1); test: affinity purification with mass spectrometry; GFP-Trap agarose beads on lysates of AMB-1 expressing McaA-GFP or McaB-GFP from replicative plasmids (20 L pooled culture); elution with 200 mM glycine pH 2.5; GFP alone as control
[2] = target: McaA-GFP (Magnetospirillum magneticum AMB-1); test: as above

Binder | binding [1] | binding [2]
MamA (protein, UniProt Q2W8Q0 1-217) MSSKPSDILDEVTLYAHYGLSVAKKLGMNMVDAFRAAFSVNDDIRQVYYRDKGISHAKAGRYSQAVMLLEQVYDADAFDVDVALHLGIAYVKTGAVDRGTELLERSLADAPDNVKVATVLGLTYVQVQKYDLAVPLLIKVAEANPINFNVRFRLGVALDNLGRFDEAIDSFKIALGLRPNEGKVHRAIAFSYEQMGRHEEALPHFKKANELDEGASV | binds | binds
MamJ (protein, UniProt Q2W8Q7 1-506) MANNRRDRDKGDGSQGEGLSAGGGMPSEPEIVSVTVHPTPTLAVSLKPAQQGDIWASLLESSPWSANHGGRIEPVQPSPAPTRPTESPSVGDLVSRWSQPIWRTPSRVEEVETPESNFVIELEASQPITSDITVSVSDLVIEVQPIQTTEAEPEPELPVAEPEPGVVPVDVVAEAEPEPELPVAEPEPGVVPVDVVAEAEPEPELPVAEPEPEVVPVDVVAEAEPEPELPVAEPEPEVVPVDVVAEAEPEPELPVAEPEPEVVPVDVVAEAEPEPELPVAAPEPEVLPVEVVAEAEPEPELPVAAPEPEVLPVEVVAEAEPEPELPVAAPEPEVVPVDVVAEAEPEPELPVAEPELVHEAAVSEPVAESIEDAVAVPAPATNFGLAELMQAAAAMAPVLASPPSVAPAAKPVREPAKKRKAPPVRKKVATVQDVPVEDLLGGIFGIAGSAVRSVLSLGAGVVGGVVKGGRVIGDNVVAGARRLTGSAEGSCGTCSTSQCDTVGKKK | binds | –

Second part, the binder after the results:

binding [1] | binding [2] | Binder
binds | – | Mms6 (protein, UniProt Q2W8R5 1-133) MGEMEREGAAAKAGAAKTGAAKTGTVAKTGIAAKTGVATAVAAPAAPANVAAAQGAGTKVALGAGKAAAGAKVVGGTIWTGKGLGLGLGLGLGAWGPIILGVVGAGAVYAYMKSRDIESAQSDEEVELRDALA
– | binds | MamK (protein, UniProt Q2W8Q6 1-347) MSEGEGQAKNRLFLGIDLGTSHTAVMSSRGKKFLLKSVVGYPKDVIGLKLLGRPYVVGDEAFEMRSYLDIRYPLQDGVLSEISDRDIEVARHLLTHVVKSAEPGPNDEICAVIGVPARASAANKALLLKMAQEVVHTALVVSEPFMVGYGLDKLINTIIVDIGAGTTDICALKGTVPGPEDQVTLTKAGNYVDERLQNAILERHPELQMNVNVACAVKEQFSFVGTPTEVASFEFRAAGKPVRADVTEPVKIACEALMPDIIESIETLLRSFQPEYQATVLQNIVFAGGGSRIRGLAAYVKEKLRPFGDANVTCVKDPTFDGCRGALRLAEELPPQYWRQLGDVSGS

Reference: article PMC13170167, “Magnetosome organelles are organized through interactions between McaA and McaB that alter the dynamics of the bacterial actin-like protein MamK” (mBio, 2026)
